Assay results from PMC12745349.
Numbering of substitutions follows the chain as printed. These are yes or no findings as the source states them, for the method shown. Binding seen in cells or lysates may run through a third protein. Some results given as binding are weak or reduced against the parent protein; the word gives no strength. For some assays here: Tags and fused reporters may be left off the sequences shown. Blank lines part the entries; values can stand above or below the binder they belong to.

By UniProt entry, the sequences of proteins in these tests, tags left out.
UniProt P19474: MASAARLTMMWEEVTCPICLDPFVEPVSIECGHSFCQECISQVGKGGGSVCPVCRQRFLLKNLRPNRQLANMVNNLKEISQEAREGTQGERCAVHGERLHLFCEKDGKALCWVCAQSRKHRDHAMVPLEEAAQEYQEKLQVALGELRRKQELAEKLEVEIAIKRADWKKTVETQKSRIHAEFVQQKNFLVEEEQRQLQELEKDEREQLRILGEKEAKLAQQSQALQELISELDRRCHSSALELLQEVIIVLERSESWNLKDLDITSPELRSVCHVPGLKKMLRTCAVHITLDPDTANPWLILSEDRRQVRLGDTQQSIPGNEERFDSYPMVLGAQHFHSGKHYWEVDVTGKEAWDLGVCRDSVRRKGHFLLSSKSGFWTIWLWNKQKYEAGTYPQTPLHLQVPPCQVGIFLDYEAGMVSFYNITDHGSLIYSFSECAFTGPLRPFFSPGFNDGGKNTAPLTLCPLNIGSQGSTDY

How the values were obtained:
[1] = biological target: Tripartite Motif Containing 21 (TRIM21) (human (endogenous in human cardiac fibroblasts)) (UniProt P19474); assay: co-IP; endogenous proteins in human cardiac fibroblast lysates (RIPA buffer); primary antibody overnight at 4 °C, protein G Sepharose beads, PBS washes, immunoblot; also after TGF-β treatment of the cells
[2] = biological target: T1, Uridine-Cytidine Kinase Like 1 (UCKL1) (human (endogenous in human cardiac fibroblasts)) (UniProt Q9NWZ5); assay: as above
T1 sequence: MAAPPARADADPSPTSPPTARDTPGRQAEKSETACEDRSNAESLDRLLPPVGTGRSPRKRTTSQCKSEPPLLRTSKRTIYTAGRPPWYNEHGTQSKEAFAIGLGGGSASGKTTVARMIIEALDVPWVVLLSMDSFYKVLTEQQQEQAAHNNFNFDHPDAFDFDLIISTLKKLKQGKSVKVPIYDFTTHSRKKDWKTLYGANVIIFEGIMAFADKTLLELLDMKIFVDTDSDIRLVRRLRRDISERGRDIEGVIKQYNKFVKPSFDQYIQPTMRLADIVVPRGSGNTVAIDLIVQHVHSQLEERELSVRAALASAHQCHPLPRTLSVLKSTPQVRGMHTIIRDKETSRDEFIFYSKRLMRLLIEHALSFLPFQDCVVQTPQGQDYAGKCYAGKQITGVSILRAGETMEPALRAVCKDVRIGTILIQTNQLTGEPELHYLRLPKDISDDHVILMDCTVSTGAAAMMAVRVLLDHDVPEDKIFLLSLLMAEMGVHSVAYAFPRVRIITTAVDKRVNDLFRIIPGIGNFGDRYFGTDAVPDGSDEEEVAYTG

[3] = biological target: T2, Flag-UCKL1 (UniProt Q9NWZ5); assay: co-IP; lysates of 293 T cells transfected with Flag-UCK2 and Flag-UCKL1 plasmids; primary antibody overnight at 4 °C, protein G Sepharose beads, PBS washes, immunoblot
T2 sequence: T1 sequence

[4] = biological target: T3, Uridine-Cytidine Kinase Like 1 (UCKL1) of mouse heart tissue (mouse (endogenous in heart tissue)) (UniProt Q91YL3); assay: co-IP; endogenous proteins in mouse heart tissue lysates (RIPA buffer); primary antibody overnight at 4 °C, protein G Sepharose beads, PBS washes, immunoblot; also after myocardial infarction (infarct and border zones)
T3 sequence: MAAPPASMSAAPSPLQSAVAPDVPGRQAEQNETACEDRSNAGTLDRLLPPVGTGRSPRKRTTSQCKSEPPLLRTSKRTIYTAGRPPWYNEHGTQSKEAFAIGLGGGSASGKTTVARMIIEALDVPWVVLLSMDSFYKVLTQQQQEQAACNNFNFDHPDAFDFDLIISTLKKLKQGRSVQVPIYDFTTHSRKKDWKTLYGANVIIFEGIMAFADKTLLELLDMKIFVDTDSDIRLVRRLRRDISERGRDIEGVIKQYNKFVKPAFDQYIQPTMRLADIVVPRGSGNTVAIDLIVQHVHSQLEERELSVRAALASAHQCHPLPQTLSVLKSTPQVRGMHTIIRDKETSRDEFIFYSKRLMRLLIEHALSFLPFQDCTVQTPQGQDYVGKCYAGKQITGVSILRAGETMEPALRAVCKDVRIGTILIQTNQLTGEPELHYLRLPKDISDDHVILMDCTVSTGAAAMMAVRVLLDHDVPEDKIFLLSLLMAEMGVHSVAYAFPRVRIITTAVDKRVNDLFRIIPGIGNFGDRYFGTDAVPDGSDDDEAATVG

B3: Flag-UCK2 (protein, UniProt Q9BZX2 1-261)
chain: MAGDSEQTLQNHQQPNGGEPFLIGVSGGTASGKSSVCAKIVQLLGQNEVDYRQKQVVILSQDSFYRVLTSEQKAKALKGQFNFDHPDAFDNELILKTLKEITEGKTVQIPVYDFVSHSRKEETVTVYPADVVLFEGILAFYSQEVRDLFQMKLFVDTDADTRLSRRVLRDISERGRDLEQILSQYITFVKPAFEEFCLPTKKYADVIIPRGADNLVAINLIVQHIQDILNGGPSKRQTNGCLNGYTPSRKRQASESSSRPH
- binding [3]: binds

B4: Uridine-Cytidine Kinase 2 (UCK2) of mouse heart tissue (protein, UniProt Q99PM9 1-261)
chain: B3 chain with R52H, L95F, V126I, P233L, C241Y
- binding [4]: binds

Now from value to binder:

- binding [1]: binds
B1: Uridine-Cytidine Kinase Like 1 (UCKL1) (protein, UniProt Q9NWZ5 1-548)
chain: T1 sequence

- binding [1]: binds
- binding [2]: binds
B2: Uridine-Cytidine Kinase 2 (UCK2) (protein, UniProt Q9BZX2 1-261)
chain: B3 chain
